Laboratory results: paper PMC11642102
No constants are given. Whether binding was seen depends on the method and setting. Binding seen in cells or lysates may run through a third protein. These calls come from enrichment with a bait or labelling near it, and not all partners need be listed. Sequences can lack the tags named with a protein.

Chains of the proteins cited; added tags and fusions are not shown.
UniProt Q01827: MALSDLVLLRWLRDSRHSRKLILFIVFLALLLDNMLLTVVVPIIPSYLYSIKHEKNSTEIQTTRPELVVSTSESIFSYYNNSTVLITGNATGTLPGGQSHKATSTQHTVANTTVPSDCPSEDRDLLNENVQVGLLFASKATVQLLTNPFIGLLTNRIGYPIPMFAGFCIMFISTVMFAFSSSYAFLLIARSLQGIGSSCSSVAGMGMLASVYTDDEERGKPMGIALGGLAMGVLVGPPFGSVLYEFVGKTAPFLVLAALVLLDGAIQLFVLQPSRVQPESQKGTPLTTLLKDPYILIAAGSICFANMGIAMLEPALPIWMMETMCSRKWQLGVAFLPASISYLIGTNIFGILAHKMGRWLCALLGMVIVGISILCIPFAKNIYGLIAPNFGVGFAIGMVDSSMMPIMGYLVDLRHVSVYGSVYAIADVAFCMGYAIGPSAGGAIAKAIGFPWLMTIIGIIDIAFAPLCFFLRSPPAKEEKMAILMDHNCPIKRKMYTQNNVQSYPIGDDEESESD

Target: vesicular monoamine transporter-2 (VMAT2) (rat (endogenous in Sprague Dawley rat striatum)) (UniProt Q01827)
Assay: affinity purification with mass spectrometry; Dynabeads with anti-VMAT2 antibody, membrane/endosomal fraction of striatal synaptosomes of saline- and METH-treated rats killed 1 h after treatment (n = 4); SDS-PAGE, in-gel trypsin digest, LC-MS/MS (Q Exactive)

Row | Binder | binding
1 | Fibrinogen alpha chain (protein, UniProt P06399 37-782) GPRIVERQPSQCKETDWPFCSDEDWNHKCPSGCRMKGLIDEANQDFTNRINKLKNSLFDFQKNNKDSNSLTRNIMEYLRGDFANANNFDNTFGQVSEDLRRRIQILKRKVIEKAQQIQVLQKDVRDQLIDMKRLEVDIDIKIRSCKGSCSRSVSREINLKDYEGQQKQLEQVIAKDLLPAKDRQYLPAIKMSPVPDLVPGSFKSQLQEGPPEWKALTEMRQMRMELERPGKDGASRGDLPGDSRGDSATRGPGSKIENPMTPGHGGSGYWRPGSSGSGSDGNWGSGTTGSDDTGTWGAGSSRPSSGSGNLKPSNPDWGEFSEFGGSSSPATRKEYHTGKLVTSKGDKELLIGNEKVTSTGTSTTRRSCSKTITKTVLGNDGHREVVKEVVTSDDGSDCGDGMDLGLTHSFSGRLDELSRMHPELGSFYDSRFGSLTSNFKEFGSKTSDSDIFTDIENPSSHVPEFSSSSKTSTVRKQVTKSYKMADEAASEAHQEGDTRTTKRGRARTMRDCDDVLQTHPSGAQNGIFSIKLPGSSKIFSVYCDQETSLGGWLLIQQRMDGSLNFNRTWQDYKRGFGSLNDKGEGEFWLGNDYLHLLTLRGSVLRVELEDWAGKEAYAEYHFRVGSEAEGYALQVSSYQGTAGDALMEGSVEEGTEYTSHSNMQFSTFDRDADQWEENCAEVYGGGWWYNSCQAANLNGIYYPGGTYDPRNNSPYEIENGVLWVPFRGADYSLWAVRMKIRPLVGQ | binds
2 | Apolipoprotein D (protein, UniProt P23593 21-189) QSFHLGKCPSPPVQENFDVKKYLGRWYEIEKIPVSFEKGNCIQANYSLMENGNIKVLNKELRPDGTLNQVEGEAKQSNMSEPAKLEVQFFSLMPPAPYWILATDYESYALVYSCTTFFWFFHVDYVWILGRNPYLPPETITYLKYILTSNDIDIAKITTKDQANCPDFL | binds
3 | synaptotagmin IV (protein, UniProt P50232 1-425) MAPITTSRVEFDEIPTVVGIFSAFGLVFTVSLFAWICCQRRSAKSNKTPPYKFVHVLKGVDIYPENLSSKKKFGGDDKSEAKRKAALPNLSLHLDLEKRDLNGNFPKTNPKAGSSSDLENVTPKLFPETEKEAVSPESLKSSTSLTSEEKQEKLGTLFLSLEYNFEKKAFVVNIKEAQGLPAMDEQSMTSDPYIKMTILPEKKHKVKTRVLRKTLDPVFDETFTFYGVPYPHIQELSLHFTVLSFDRFSRDDVIGEVLVPLSGIELSDGKMLMTREIIKRNAKKSSGRGELLVSLCYQSTTNTLTVVVLKARHLPKSDVSGLSDPYVKVNLYHAKKRISKKKTHVKKCTPNAVFNELFVFDIPCESLEEISVEFLVLDSERGSRNEVIGRLVLGATAEGSGGGHWKEICDFPRRQIAKWHMLCDG | binds
4 | cell division cycle related-1 (CDCrel-1) (protein, UniProt Q9JJM9 1-369) MSTGLRYKSKLATPEDKQDIDKQYVGFATLPNQVHRKSVKKGFDFTLMVAGESGLGKSTLVHSLFLTDLYKDRKLLSAEERINQTVEILKHTVDIEEKGVKLKLTIVDTPGFGDAVNNFECWKPITDYVDQQFEQYFRDESGLNRKNIQDNRVHCCLYFISPFGHGLRPVDVGFMKALHEKVNIVPLIAKADCLVPSEIRKLKDRIREEIDKFGIHVYQFPECDSDEDEDFKQQDRELKESAPFAVIGSNTVVEAKGQRVRGRLYPWGIVEVENQAHCDFVKLRNMLIRTHMHDLKDVTCDVHYENYRAHCIQQMTSKLTQDSRMESPIPILPLPTPDSETEKLIRMKDEELRRMQEMLQKMKQRMQDQ | binds
5 | Receptor-type tyrosine-protein phosphatase-like N (protein, UniProt Q63259 41-983) ISAHGCLFDRRLCSHLEVCIQDGLFGQCQAGVGQARPLLQVTSPVLQRLQGVLRQLMSQGLSWHDDLTQYVISQEMERIPRLRPPEPHPRDRSGSVPRRAGPAGELLSQGNPTGSSPAVQGLSRPPGDGNGAGVGSPLSSLQAELLPPLLEHLLMPPQPPHPSLTYEPALLQPYLFQQFGSRDGSRGSESASGVVGHLAKAEDPVLFSRSLSKAILGTHSGHSFGDLTGPSPAQLFQDSGLLYMAQELPVPGRARAPRLPEEGGSSRAEDSSEGHEEEVLGGHGEKSPPQAVQADVSLQRLAAVLAGYGVELRQLTPEQLSTLLTLLQLLPKGTGRHLGGAVNGGADVKKTIEEQMQRGDTADARPPTPLLPGHPTASSTSIKVRQVLSPGFPEPPKTSSPLGISAVLLEKKSPLGQSQPTVVGQPSARPSAEEYGYIVTDQKPLSLVAGVKLLEILAEHVHMTSGSFINISVVGPAVTFRIRHNEQNLSLADVTQQAGLVKSELEAQTGLQILQTGVGQREESAAVLPRQAHGISPMRSLLLTLVALAGVAGLLVALAVALCMRHHSKQRDKERLAALGPEGAHGDTTFEYQDLCRQHMATKSLFNRAEGQPEPSRVSSVSSQFSDAAQASPSSHSSTPSWCEEPAQANMDISTGHMILAYMEDHLRNRDRLAKEWQALCAYQAEPNTCATAQGEGNIKKNRHPDFLPYDHARIKLKVESSPSRSDYINASPIIEHDPRMPAYIATQGPLSHTIADFWQMVWESGCTVIVMLTPLVEDGVKQCDRYWPDEGSSLYHVYEVNLVSEHIWCEDFLVRSFYLKNVQTQETRTLTQFHFLSWPAEGTPASTRPLLDFRRKVNKCYRGRSCPIIVHCSDGAGRTGTYILIDMVLNRMAKGVKEIDIAATLEHVRDQRPGLVRSKDQFEFALTAVAEEVNAILKALPQ | binds
6 | Glia maturation factor beta (protein, UniProt Q63228 1-142) MSESLVVCDVAEDLVEKLRKFRFRKETHNAAIIMKIDKDKRLVVLDEELEGVSPDELKDELPERQPRFIVYSYKYQHDDGRVSYPLCFIFSSPLGCKPEQQMMYAGSKNKLVQTAELTKVFEIRNTEDLTEEWLREKLGFFH | binds
7 | Sorting nexin-17 (protein, UniProt Q6AYS6 1-470) MHFSIPETESRSGDSGGSTYVAYNIHVNGVLHCRVRYSQLLGLHEQLRKEYGANVLPAFPPKKLFSLTPAEVEQRREQLEKYMQAVRQDPLLGSSETFNSFLRRAQQETQQVPTEEVSLEVLLSDGQKVLVNVLTSDQTEDVLEAVAAKLDLPDDLIGYFSLFLVREKEDGAFSFVRKLQEFELPYVSVTSLRSQEYKIVLRKSYWDSAYDDDVMENRVGLNLLYAQTVSDIEHGWILVTKEQHRQLKSLQEKVSKKEFLRLAQTLRHYGYLRFDACVADFPEKDCPVVVSAGNSELSLQLRLPGQQLREGSFRVTRMRCWRVTSSVPLPSGGTSTPSRGRGEVRLELAFEYLMSKDRLQWVTITSPQAIMMSICLQSMVDELMVKKSGGSIRKMLRRRVGGNLRRSDSQQAVKSPPLLESPDASRESMVKLSSKLSAVSLRGIGSPSTDASASAVHGNFAFEGIGDEDL | binds
